Experimental findings from publication PMC7039678 are described below.

No constants are given. Whether binding was seen depends on the method and setting. For some of these results: Binding seen in cells or lysates may run through a third protein. Some binding calls cover weakened binding; strength is not graded here. For some of these results: Where a sequence is shown, tags or fusion partners need not be part of it.

The target of experiment [1] is T1, 3x Flag-tagged EDEM2 C408A (human) (UniProt Q9BV94).
T1 sequence: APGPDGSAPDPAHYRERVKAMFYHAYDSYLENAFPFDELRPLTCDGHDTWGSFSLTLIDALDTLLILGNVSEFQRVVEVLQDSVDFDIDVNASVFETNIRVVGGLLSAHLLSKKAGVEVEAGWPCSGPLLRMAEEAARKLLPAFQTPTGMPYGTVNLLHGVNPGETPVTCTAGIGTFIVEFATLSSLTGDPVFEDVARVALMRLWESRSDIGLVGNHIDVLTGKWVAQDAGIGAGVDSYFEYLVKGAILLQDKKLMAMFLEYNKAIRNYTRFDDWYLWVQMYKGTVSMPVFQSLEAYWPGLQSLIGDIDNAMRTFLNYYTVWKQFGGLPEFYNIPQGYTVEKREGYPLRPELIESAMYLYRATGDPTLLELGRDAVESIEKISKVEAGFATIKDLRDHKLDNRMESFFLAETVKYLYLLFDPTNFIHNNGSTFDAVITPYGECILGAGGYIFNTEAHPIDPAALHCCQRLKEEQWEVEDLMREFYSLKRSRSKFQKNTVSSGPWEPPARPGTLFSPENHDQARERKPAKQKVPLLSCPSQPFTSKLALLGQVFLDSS
The experiment in a line: co-IP; lysates of transfected HCT116 knockout cells; anti-Flag antibody and protein G-coupled Sepharose beads; washed with 50 mM Tris/Cl pH 8.0, 1% NP-40, 150 mM NaCl, then PBS; blots of endogenous partners after reducing and non-reducing SDS-PAGE.

Experiment [2] concerns the target T2, 3x Flag-tagged WT EDEM2 (human) (UniProt Q9BV94).
T2 sequence: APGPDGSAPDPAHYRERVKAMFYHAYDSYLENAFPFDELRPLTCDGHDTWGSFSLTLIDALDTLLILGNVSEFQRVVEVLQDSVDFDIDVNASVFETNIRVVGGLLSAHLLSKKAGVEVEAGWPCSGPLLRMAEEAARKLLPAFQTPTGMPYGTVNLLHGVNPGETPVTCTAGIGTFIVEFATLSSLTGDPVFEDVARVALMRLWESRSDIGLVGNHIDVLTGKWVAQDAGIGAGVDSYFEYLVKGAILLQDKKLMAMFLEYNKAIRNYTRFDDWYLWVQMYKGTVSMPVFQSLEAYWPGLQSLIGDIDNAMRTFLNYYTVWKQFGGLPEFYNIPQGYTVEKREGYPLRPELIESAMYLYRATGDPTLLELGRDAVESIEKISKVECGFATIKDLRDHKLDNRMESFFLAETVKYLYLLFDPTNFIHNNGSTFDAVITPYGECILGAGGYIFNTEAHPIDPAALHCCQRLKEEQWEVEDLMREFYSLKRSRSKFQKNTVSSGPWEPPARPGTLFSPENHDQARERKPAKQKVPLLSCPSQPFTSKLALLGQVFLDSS
The experiment is described as above.

For experiment [3], the target named is T3, 3x Flag-tagged EDEM2 C558A (human) (UniProt Q9BV94).
T3 sequence: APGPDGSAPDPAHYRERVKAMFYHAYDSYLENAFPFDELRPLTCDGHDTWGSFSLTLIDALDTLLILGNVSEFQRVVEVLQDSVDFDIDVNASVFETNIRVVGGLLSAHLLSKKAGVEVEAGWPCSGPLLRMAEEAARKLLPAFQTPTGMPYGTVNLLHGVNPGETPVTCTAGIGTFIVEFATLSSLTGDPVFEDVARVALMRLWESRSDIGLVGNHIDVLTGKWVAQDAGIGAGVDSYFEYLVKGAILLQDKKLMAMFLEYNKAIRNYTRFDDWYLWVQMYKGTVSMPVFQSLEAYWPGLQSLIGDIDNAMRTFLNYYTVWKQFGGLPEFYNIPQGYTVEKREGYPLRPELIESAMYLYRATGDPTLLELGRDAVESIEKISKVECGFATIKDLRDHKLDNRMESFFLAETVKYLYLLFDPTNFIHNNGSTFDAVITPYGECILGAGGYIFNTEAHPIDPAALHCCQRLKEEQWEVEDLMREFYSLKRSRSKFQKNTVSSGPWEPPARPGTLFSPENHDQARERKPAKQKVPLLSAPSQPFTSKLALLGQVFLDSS
Described as above.

Experiment [4] deals with T4, 3x Flag-tagged EDEM2 C65A (human) (UniProt Q9BV94).
T4 sequence: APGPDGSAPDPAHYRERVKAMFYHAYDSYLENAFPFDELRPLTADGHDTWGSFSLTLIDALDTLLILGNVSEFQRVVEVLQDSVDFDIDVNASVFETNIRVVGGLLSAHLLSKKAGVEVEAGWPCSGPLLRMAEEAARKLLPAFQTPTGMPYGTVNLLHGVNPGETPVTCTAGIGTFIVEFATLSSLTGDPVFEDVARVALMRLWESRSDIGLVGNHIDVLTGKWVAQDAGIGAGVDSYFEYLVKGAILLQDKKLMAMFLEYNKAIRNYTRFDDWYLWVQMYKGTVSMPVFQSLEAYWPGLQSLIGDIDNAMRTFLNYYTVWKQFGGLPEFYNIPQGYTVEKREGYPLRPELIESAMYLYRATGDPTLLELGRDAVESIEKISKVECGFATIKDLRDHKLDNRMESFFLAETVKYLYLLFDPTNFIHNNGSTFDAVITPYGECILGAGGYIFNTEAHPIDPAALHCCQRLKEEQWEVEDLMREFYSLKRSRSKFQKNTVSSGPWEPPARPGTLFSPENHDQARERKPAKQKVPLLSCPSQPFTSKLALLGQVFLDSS
The experiment is described as above.

Experiment [5] deals with T5, tandem affinity purification (TAP)-tagged EDEM2 (WT) (human) (UniProt Q9BV94).
T5 sequence: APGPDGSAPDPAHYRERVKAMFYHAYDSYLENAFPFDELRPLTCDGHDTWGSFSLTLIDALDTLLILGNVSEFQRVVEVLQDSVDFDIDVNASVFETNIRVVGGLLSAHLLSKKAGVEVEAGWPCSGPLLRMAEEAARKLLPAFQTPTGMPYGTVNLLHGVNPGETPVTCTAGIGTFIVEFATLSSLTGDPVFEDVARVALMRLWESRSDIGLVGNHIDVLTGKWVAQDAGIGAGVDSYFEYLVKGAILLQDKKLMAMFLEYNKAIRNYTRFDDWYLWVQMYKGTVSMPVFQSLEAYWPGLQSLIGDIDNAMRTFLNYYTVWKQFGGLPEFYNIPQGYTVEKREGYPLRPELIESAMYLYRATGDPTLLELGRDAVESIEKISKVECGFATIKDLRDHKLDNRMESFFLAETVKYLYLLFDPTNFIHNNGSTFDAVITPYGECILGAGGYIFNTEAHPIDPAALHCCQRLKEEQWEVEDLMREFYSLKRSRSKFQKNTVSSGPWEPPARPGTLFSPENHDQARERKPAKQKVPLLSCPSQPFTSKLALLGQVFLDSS
As to the kind of experiment: pull-down; EDEM2-KO cells co-transfected with TAP-EDEM2 and TXNDC11(M1A)-3xFlag; lysis in 50 mM MES pH 7.5, 150 mM NaCl, 1% CHAPS; IgG Sepharose beads 8 hr at 4°C; wash with 400 mM NaCl, 0.1% CHAPS overnight; eluted with AcTEV protease; eluates read by silver staining and by immunoblotting.

For experiment [6], the target named is T6, endogenous EDEM2 (human (endogenous in HCT116)) (UniProt Q9BV94).
T6 sequence: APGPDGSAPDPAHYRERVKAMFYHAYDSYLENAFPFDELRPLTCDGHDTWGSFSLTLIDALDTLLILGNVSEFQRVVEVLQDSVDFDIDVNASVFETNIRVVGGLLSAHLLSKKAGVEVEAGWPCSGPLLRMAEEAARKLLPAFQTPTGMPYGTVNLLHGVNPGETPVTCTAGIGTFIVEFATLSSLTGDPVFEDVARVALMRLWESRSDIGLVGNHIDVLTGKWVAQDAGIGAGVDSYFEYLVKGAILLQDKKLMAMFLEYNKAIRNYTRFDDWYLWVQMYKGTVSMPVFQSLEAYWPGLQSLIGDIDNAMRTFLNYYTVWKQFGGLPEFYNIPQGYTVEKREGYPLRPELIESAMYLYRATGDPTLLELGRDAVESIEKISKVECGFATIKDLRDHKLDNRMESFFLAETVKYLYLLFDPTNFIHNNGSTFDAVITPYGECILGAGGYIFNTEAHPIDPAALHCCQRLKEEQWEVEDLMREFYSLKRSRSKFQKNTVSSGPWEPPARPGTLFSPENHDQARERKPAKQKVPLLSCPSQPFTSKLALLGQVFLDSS
As to the kind of experiment: non-reducing SDS-PAGE with immunoblotting (disulfide-bonded complex); lysates of untransfected HCT116 WT, EDEM2-KO and TXNDC11-KO cells; reducing against non-reducing SDS-PAGE; blots with anti-EDEM2, anti-PDI and anti-TXNDC11. (In general: In western blotting, separated proteins are transferred to a membrane and probed.)

B1: endogenous ERp72 (enzyme, UniProt P13667 21-645)
chain: VAGAEGPDEDSSNRENAIEDEEEEEEEDDDEEEDDLEVKEENGVLVLNDANFDNFVADKDTVLLEFYAPWCGHCKQFAPEYEKIANILKDKDPPIPVAKIDATSASVLASRFDVSGYPTIKILKKGQAVDYEGSRTQEEIVAKVREVSQPDWTPPPEVTLVLTKENFDEVVNDADIILVEFYAPWCGHCKKLAPEYEKAAKELSKRSPPIPLAKVDATAETDLAKRFDVSGYPTLKIFRKGRPYDYNGPREKYGIVDYMIEQSGPPSKEILTLKQVQEFLKDGDDVIIIGVFKGESDPAYQQYQDAANNLREDYKFHHTFSTEIAKFLKVSQGQLVVMQPEKFQSKYEPRSHMMDVQGSTQDSAIKDFVLKYALPLVGHRKVSNDAKRYTRRPLVVVYYSVDFSFDYRAATQFWRSKVLEVAKDFPEYTFAIADEEDYAGEVKDLGLSESGEDVNAAILDESGKKFAMEPEEFDSDTLREFVTAFKKGKLKPVIKSQPVPKNNKGPVKVVVGKTFDSIVMDPKKDVLIEFYAPWCGHCKQLEPVYNSLAKKYKGQKGLVIAKMDATANDVPSDRYKVEGFPTIYFAPSGDKKNPVKFEGGDRDLEHLSKFIEEHATKLSRTKEEL
On to B1, for which the binding entry in experiment [1], in experiment [2], in experiment [3] and in experiment [4] was “no binding” in each case.

B2: TXNDC11(M1A)-3xFlag (protein, UniProt Q6PKC3-2 58-958)
chain: MARQRPELLCGAVALGCALLLALKFTCSRAKDVIIPAKPPVSFFSLRSPVLDLFQGQLDYAEYVRRDSEVVLLFFYAPWCGQSIAARAEIEQAASRLSDQVLFVAINCWWNQGKCRKQKHFFYFPVIYLYHRSFGPIEYKGPMSAVYIEKFVRRVMKPLLYIPSQSELLDFLSNYEPGVLGYFEFSGSPQPPGYLTFFTSALHSLKKDYLGTVRFGVITNKHLAKLVSLVHSGSVYLHRHFNTSLVFPREVLNYTAENICKWALENQETLFRWLRPHGGKSLLLNNELKKGPALFLFIPFNPLAESHPLIDEITEVALEYNNCHGDQVVERLLQHLRRVDAPVLESLALEVPAQLPDPPTITASPCCNTVVLPQWHSFSRTHNVCELCVNQTSGGMKPSSVSVPQCSFFEMAAALDSFYLKEQTFYHVASDSIECSNFLTSYSPFSYYTACCRTISRGVSGFIDSEQGVFEAPTVAFSSLEKKCEVDAPSSVPHIEENRYLFPEVDMTSTNFTGLSCRTNKTLNIYLLDSNLFWLYAERLGAPSSTQVKEFAAIVDVKEESHYILDPKQALMKLTLESFIQNFSVLYSPLKRHLIGSGSAQFPSQHLITEVTTDTFWEVVLQKQDVLLLYYAPWCGFCPSLNHIFIQLARNLPMDTFTVARIDVSQNDLPWEFMVDRLPTVLFFPCNRKDLSVKYPEDVPITLPNLLRFILHHSDPASSPQNVANSPTKECLQSEAVLQRGHISHLEREIQKLRAEISSLQRAQVQVESQLSSARRDEHRLRQQQRALEEQHSLLHAHSEQLQALYEQKTRELQELARKLQELADASENLLTENTWLKILVATMERKLEGRDGAESLAAQREVHPKQPEPSATPQLPGSSPPPANVSATLVSERNKENRTD
modifications: N-glycosylated
Turning to B2, in experiment [5], the binding entry was “binds”.

B3: endogenous TXNDC11 (protein, UniProt Q6PKC3-2 1-958)
chain: MSECGGRGGGSSSSEDAEDEGGGGGGPAGSDCLSSSPTLATASSAGRLRRGLRGAFLMARQRPELLCGAVALGCALLLALKFTCSRAKDVIIPAKPPVSFFSLRSPVLDLFQGQLDYAEYVRRDSEVVLLFFYAPWCGQSIAARAEIEQAASRLSDQVLFVAINCWWNQGKCRKQKHFFYFPVIYLYHRSFGPIEYKGPMSAVYIEKFVRRVMKPLLYIPSQSELLDFLSNYEPGVLGYFEFSGSPQPPGYLTFFTSALHSLKKDYLGTVRFGVITNKHLAKLVSLVHSGSVYLHRHFNTSLVFPREVLNYTAENICKWALENQETLFRWLRPHGGKSLLLNNELKKGPALFLFIPFNPLAESHPLIDEITEVALEYNNCHGDQVVERLLQHLRRVDAPVLESLALEVPAQLPDPPTITASPCCNTVVLPQWHSFSRTHNVCELCVNQTSGGMKPSSVSVPQCSFFEMAAALDSFYLKEQTFYHVASDSIECSNFLTSYSPFSYYTACCRTISRGVSGFIDSEQGVFEAPTVAFSSLEKKCEVDAPSSVPHIEENRYLFPEVDMTSTNFTGLSCRTNKTLNIYLLDSNLFWLYAERLGAPSSTQVKEFAAIVDVKEESHYILDPKQALMKLTLESFIQNFSVLYSPLKRHLIGSGSAQFPSQHLITEVTTDTFWEVVLQKQDVLLLYYAPWCGFCPSLNHIFIQLARNLPMDTFTVARIDVSQNDLPWEFMVDRLPTVLFFPCNRKDLSVKYPEDVPITLPNLLRFILHHSDPASSPQNVANSPTKECLQSEAVLQRGHISHLEREIQKLRAEISSLQRAQVQVESQLSSARRDEHRLRQQQRALEEQHSLLHAHSEQLQALYEQKTRELQELARKLQELADASENLLTENTWLKILVATMERKLEGRDGAESLAAQREVHPKQPEPSATPQLPGSSPPPANVSATLVSERNKENRTD
modifications: N-glycosylated
On to B3, for which the binding entry was “binds” in experiment [6]; “binds” in experiment [1]; “binds” in experiment [2]; “no binding” in experiment [3]; “binds” in experiment [4].
